Data: US20140123342A1, “Regulation of Stomatal Apertures by Apyrases and Extracellular Nucleotides” (BOARD OF REGENTS, THE UNIVERSITY OF TEXAS SYSTEM, priority 2011, published 2014)
Some of these results come from one statement about several compounds together. At least one structure is not confirmed: it was looked up by name or label, or the drawing left a doubt.

Columns and labels:
[1] = system: stomata (guard cells) in epidermal peels; experiment: Stomatal aperture closure studies, epidermal peels in the light; format: cell-based, Arabidopsis thaliana; conditions: dose-response tests with applied nucleotides, summary statement
Protocol: (§1) Stomatal Aperture Studies: Arabidopsis thaliana ecotypes Columbia (Col-0) and Wassilewskija (WS) were used as wild types in this study. Col-0, nia1nia2, atrbohD/F, R2-4A and WS plants were all grown on autoclaved Metro-Mix 200 soil at 22° C. under continuous light. The mutant seeds nia1nia2 nia2-5; CS 2356; Col-0 background) were obtained from Dr. N. M. Crawford (University of California at San Diego) and the mutant seeds atrbohD/F (Col-0 background) were obtained from Dr. J. M. Kwak (University of Maryland). The RNAi mutant apyrase line (R2-4A) is in WS background, so WS ecotype was used as the control wild type for these studies. […]
(§2) For studies testing the effects of ATPγS, ADPγS, AMPS, RB2, and PPADS (Sigma, St. Louis, Mo., USA) 20 mM stocks were made by dissolving the compounds in de-ionized water. […] The concentration of the immune and pre-immune sera, determined by Bradford assay (Bio-Rad), was 10.2 μg/mL and 7.7 μg/mL, respectively.
(§3) After treatment, photos of stomata were taken using a light microscope at 20×. Stomatal aperture width was measured using the image processing software ImageJ. Typically, photos were taken of 70 to 90 stomata per treatment of which only 50 stomata were measured for each treatment. […] Statistical significance of the measurements for the treatments was determined using the Student's t test in Microsoft Excel.

[2] = system: stomata (guard cells) in epidermal peels; experiment: Stomatal aperture opening studies, epidermal peels in the dark; format: cell-based, Arabidopsis thaliana; conditions: dose-response tests with applied nucleotides, summary statement
Protocol: as §1, §2, §3

In the case of Nc1ncnc2c1ncn2[C@@H]1O[C@H](COP(=O)(O)OP(O)(O)=S)[C@@H](O)[C@H]1O [ADPβS], the “concentrations that induce stomatal closure” value [1] is reported as 150 to 200 µM and the “concentrations that induce stomatal opening” value [2] is reported as 5 to 15 µM.
